Data reported in article PMC10454557.
No constants are given. Whether binding was seen depends on the method and setting. In cells and extracts the contact can be indirect. Some entries that bind do so weakly or less than the wild type. For some of these results: Sequences can lack the tags named with a protein. One block for each binder: values may come before it.

The chains behind the UniProt entries cited, without tags or fusion partners. Residues count along the entry.
UniProt Q14416, residues 19-872: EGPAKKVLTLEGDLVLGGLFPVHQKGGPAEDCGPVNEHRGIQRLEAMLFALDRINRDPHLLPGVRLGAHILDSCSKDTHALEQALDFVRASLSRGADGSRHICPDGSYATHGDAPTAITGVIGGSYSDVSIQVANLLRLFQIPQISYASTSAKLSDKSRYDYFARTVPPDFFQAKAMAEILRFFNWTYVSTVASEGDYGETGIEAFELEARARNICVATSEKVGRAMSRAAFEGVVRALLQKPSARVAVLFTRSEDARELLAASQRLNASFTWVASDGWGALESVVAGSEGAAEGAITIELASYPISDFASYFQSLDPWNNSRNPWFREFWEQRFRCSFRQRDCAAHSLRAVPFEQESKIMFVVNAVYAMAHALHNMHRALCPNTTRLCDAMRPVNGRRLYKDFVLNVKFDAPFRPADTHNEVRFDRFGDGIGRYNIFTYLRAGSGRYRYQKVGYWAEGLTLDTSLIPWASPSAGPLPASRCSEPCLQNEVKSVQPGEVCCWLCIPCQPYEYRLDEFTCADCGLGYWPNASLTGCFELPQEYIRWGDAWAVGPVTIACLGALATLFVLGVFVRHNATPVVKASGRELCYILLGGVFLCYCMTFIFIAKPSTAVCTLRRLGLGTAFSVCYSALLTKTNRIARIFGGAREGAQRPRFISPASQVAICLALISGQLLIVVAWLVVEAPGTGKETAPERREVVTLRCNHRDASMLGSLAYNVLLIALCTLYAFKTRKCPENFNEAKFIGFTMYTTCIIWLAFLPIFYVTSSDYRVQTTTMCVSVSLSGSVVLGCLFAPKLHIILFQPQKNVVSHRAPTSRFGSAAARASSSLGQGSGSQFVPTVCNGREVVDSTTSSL

Tests used:
[1] = target: metabotropic glutamate receptor 2 (mGlu2), endogenous in human blood leukocytes (human (endogenous in blood PMNs and T cells)) (UniProt Q14416); assay: co-IP; lysates (RIPA) of isolated human blood PMNs; anti-mGlu2 or anti-TAS1R3 antibody covalently cross-linked to Dynabeads; lysate cleared at 12,000 x g or 15,000 x g; Western blot for the other receptor
[2] = target: T1, recombinant human TAS1R3 with N-terminal IL-6-HaloTag or IL-6-NanoLuc (human) (UniProt Q7RTX0); assay: FRET or BRET; NanoBRET in living HEK-293 cells, transiently transfected with 50 ng/well of each plasmid; IL-6-HaloTag fusion with NanoBRET 618 ligand as acceptor, IL-6-NanoLuc fusion as donor; normalised to the p53/MDM2 positive control; 50 uM MSG did not alter the signals
T1 sequence: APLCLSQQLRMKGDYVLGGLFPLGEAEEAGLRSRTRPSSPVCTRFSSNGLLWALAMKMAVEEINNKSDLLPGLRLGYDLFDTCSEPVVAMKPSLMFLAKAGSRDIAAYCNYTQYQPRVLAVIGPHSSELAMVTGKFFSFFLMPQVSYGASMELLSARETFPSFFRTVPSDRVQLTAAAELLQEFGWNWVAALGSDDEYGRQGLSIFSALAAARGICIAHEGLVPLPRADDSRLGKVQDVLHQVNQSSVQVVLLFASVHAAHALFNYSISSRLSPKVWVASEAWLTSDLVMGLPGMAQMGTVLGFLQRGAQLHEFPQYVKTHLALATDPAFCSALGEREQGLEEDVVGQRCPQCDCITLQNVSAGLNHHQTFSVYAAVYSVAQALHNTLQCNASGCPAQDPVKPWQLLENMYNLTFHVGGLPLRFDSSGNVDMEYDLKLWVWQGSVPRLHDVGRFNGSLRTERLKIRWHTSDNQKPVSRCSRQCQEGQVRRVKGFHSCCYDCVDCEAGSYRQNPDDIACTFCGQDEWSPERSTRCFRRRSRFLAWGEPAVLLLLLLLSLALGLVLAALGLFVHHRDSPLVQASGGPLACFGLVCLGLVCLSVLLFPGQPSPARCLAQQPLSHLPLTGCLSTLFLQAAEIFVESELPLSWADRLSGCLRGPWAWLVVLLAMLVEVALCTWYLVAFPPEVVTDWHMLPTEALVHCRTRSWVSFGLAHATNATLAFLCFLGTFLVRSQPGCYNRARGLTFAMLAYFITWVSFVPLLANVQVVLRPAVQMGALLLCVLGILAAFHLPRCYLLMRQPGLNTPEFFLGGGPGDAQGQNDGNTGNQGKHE

[3] = target: recombinant human mGlu2 with N-terminal IL-6-HaloTag or IL-6-NanoLuc (human) (UniProt Q14416); assay: as above
[4] = target: recombinant human mGlu2 with N-terminal IL-6-HaloTag or IL-6-NanoLuc (human) (UniProt Q14416); assay: FRET or BRET; NanoBRET saturation in HEK-293 cells: acceptor IL-6-HaloTag-TAS1R3 titrated, donor IL-6-NanoLuc-mGlu2 kept constant

binding [1]: binds
B1: taste receptor type 1 member 3 (TAS1R3), endogenous in human blood leukocytes (receptor, UniProt Q7RTX0 21-852)
chain: T1 sequence

binding [2]: binds
binding [3]: binds
binding [4]: binds
B2: recombinant human TAS1R3 with N-terminal IL-6-HaloTag or IL-6-NanoLuc (receptor, UniProt Q7RTX0 21-852)
chain: T1 sequence
